Source: US11981918B2, “Differentiation technique to generate dopaminergic neurons from induced pluripotent stem cells” (CEDARS-SINAI MEDICAL CENTER, priority 2018, dated 2024)

Test system: Midbrain-Chip DA-neurons

Question: `CN1CC[C@]23c4c5ccc(O)c4O[C@H]2[C@@H](O)C=C[C@H]3[C@H]1C5` [morphine] was tested. Which “response to morphine (dopamine from chip effluent)” value did it give?
Answer: respond to morphine treatment
